Results on five substances are retold here after publication PMC12238390.

Protein sequences, listed by entry. Tags and fused reporters are not part of them. Residues count along the entry.
UniProt P63104: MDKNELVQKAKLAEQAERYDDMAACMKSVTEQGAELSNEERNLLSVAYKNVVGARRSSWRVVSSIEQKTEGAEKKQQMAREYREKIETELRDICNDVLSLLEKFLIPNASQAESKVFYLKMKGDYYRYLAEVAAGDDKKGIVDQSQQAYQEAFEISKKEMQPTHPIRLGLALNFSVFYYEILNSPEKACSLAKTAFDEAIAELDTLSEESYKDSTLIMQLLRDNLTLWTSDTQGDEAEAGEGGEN
UniProt P30530, residues 26-894: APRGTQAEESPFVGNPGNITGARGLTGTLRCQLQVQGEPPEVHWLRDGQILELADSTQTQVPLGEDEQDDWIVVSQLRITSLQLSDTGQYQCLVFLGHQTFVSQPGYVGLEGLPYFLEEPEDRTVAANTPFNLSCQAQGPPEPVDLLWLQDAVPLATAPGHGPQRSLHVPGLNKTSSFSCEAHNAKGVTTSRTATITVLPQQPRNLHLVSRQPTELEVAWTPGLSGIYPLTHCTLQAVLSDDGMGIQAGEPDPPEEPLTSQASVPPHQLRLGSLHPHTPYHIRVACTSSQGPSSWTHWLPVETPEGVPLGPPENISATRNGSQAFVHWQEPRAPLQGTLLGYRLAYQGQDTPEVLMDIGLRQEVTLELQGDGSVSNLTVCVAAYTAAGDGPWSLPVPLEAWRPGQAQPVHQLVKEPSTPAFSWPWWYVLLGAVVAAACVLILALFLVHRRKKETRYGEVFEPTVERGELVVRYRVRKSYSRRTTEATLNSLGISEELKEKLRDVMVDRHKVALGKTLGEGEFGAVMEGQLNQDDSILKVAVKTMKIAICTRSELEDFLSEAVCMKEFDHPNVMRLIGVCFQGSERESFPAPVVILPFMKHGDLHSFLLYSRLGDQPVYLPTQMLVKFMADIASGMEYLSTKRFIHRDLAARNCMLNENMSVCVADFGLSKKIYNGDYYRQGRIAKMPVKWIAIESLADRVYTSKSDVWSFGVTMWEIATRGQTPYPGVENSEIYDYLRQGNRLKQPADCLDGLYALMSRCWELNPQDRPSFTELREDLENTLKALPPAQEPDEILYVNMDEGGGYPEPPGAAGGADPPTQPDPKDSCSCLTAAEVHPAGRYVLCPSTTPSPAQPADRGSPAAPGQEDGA
UniProt Q12778: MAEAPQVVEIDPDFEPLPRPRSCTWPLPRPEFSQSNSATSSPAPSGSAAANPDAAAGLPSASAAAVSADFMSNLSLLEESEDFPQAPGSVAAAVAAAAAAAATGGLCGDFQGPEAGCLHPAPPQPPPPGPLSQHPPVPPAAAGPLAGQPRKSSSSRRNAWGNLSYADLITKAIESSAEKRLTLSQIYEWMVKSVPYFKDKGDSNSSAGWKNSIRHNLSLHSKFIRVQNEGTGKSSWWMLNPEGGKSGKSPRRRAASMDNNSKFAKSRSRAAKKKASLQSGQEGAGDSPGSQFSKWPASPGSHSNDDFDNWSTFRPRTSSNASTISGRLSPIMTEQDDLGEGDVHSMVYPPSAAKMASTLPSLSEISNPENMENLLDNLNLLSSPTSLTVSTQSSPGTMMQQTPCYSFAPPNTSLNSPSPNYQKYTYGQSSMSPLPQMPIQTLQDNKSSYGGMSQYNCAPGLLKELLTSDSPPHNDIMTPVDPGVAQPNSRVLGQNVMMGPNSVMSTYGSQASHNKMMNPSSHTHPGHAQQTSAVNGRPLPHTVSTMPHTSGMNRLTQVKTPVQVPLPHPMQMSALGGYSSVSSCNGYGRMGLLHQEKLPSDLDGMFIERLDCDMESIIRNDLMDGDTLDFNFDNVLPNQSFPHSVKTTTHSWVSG
UniProt O43524: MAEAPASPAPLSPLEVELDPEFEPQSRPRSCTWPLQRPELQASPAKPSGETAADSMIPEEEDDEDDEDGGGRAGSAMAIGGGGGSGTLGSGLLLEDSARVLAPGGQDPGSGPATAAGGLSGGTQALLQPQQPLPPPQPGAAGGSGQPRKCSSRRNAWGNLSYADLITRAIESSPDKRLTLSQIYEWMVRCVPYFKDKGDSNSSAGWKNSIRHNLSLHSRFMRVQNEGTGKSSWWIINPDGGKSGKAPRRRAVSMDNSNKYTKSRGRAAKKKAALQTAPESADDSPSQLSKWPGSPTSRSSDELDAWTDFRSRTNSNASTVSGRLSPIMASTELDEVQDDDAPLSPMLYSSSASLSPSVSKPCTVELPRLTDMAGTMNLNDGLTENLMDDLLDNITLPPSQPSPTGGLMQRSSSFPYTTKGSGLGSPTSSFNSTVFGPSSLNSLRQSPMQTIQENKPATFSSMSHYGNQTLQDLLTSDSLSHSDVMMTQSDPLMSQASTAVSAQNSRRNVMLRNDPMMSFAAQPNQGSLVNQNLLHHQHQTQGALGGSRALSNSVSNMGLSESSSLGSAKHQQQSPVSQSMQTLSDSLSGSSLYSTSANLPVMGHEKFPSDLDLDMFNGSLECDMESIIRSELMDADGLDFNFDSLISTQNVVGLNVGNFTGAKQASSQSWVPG
UniProt Q8N122: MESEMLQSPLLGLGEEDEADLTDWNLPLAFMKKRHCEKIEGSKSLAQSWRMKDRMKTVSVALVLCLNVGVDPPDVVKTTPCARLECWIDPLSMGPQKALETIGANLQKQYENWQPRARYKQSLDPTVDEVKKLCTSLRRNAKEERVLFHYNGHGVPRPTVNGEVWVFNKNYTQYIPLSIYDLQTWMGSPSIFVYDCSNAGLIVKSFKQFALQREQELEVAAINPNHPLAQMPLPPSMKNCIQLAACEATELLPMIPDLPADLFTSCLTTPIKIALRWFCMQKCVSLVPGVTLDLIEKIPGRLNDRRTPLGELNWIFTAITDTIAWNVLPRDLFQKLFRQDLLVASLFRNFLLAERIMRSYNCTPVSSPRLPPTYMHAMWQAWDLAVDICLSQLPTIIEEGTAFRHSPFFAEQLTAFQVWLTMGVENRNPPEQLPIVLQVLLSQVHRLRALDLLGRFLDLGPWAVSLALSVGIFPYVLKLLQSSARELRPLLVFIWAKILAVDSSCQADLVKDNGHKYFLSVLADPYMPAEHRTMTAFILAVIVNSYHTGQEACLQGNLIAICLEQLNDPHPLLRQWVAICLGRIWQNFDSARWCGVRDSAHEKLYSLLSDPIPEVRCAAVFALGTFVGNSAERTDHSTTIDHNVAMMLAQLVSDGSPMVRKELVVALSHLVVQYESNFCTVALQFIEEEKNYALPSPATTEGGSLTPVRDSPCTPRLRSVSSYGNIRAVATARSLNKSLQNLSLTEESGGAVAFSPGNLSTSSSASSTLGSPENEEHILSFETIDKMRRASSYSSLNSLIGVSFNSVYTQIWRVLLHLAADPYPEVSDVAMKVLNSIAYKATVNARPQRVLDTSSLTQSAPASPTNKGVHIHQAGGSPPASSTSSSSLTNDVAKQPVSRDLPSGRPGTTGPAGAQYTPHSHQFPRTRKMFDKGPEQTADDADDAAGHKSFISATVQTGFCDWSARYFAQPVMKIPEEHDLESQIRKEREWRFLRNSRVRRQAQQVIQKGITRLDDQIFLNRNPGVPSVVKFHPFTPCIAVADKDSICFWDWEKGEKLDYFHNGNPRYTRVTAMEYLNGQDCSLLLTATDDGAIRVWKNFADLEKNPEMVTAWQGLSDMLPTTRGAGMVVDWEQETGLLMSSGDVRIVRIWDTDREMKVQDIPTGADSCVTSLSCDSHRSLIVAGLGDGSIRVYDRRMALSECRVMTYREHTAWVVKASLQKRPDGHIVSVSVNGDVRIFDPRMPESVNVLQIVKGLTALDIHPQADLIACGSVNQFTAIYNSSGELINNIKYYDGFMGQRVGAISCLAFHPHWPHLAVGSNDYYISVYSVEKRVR
UniProt P40763: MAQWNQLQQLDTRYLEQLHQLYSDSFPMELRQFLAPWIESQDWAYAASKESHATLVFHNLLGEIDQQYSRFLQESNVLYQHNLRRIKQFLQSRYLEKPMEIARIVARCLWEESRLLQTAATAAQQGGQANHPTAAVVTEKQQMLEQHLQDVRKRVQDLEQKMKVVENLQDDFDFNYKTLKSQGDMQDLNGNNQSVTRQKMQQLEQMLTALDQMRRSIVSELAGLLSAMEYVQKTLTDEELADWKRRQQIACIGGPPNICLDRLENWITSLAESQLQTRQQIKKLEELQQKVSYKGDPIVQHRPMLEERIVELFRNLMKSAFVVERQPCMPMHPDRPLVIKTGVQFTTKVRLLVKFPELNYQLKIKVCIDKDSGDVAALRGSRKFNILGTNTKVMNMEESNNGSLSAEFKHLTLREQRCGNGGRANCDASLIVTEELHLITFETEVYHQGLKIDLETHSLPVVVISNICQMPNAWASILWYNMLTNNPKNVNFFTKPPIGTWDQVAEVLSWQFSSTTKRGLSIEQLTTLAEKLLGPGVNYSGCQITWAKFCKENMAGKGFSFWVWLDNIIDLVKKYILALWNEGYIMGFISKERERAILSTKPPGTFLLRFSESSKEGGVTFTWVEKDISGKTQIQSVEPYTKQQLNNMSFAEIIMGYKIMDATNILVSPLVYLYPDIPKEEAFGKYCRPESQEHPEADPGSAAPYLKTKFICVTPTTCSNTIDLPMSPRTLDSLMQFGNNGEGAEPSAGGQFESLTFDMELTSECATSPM

The target of test [1] is recombinant glutathione S-transferase (GST)-tagged 14-3-3ζ (UniProt P63104). Nature of the test: pull-down; A549 cell lysates, with or without BA; pull-down with GST-tagged 14-3-3ζ (Fig. S2c); only the target purified.
The target of test [2] is Myc epitope-tagged 14-3-3ζ (UniProt P63104). Nature of the test: co-IP; HEK293T cells transiently transfected with Myc-tagged 14-3-3 isoforms, incubated with DMSO or 500 µM BA for 24 h, lysed; IP with antibodies to Myc, immunoblot of endogenous client proteins. In general terms: Immunoblotting shows a protein as a band on a membrane.
Test [3] concerns the target recombinant glutathione S-transferase (GST)-tagged 14-3-3ζ (UniProt P63104). Nature of the test: pull-down; HEK293T or BxPC-3 cells treated with DMSO or 1000 µM BA for 100 min, lysed; pull-down with recombinant GST-tagged 14-3-3ζ, immunoblot; only the target purified.

No constants are given. Whether binding was seen depends on the method and setting. In cells and extracts the contact can be indirect. Some entries that bind do so weakly or less than the wild type.

As for “Axl (from UniProt P30530 26-894) (receptor)”, the binding result in test [1] was “binds”.

In the case of FOXO1 (from UniProt Q12778 1-655), in test [2], the binding result is on record as “binds”.

On to FOXO3a (from UniProt O43524 1-673), for which the binding result in test [2] is on record as “binds”.

On to Raptor (from UniProt Q8N122 1-1335), for which the binding result in test [2] is recorded as “binds”.

Take “signal transducer and activator of transcription 3 (STAT3) (from UniProt P40763 1-770)”: the binding entry in test [2] and in test [3] was “binds” throughout.
